These are yes or no findings as the source states them, for the method shown. Some binding calls cover weakened binding; strength is not graded here.

Sequences of proteins named here, by UniProt entry; tags and fusion partners are left off. A change or cut given only in a name is not applied to a line headed by its entry.
UniProt P18577: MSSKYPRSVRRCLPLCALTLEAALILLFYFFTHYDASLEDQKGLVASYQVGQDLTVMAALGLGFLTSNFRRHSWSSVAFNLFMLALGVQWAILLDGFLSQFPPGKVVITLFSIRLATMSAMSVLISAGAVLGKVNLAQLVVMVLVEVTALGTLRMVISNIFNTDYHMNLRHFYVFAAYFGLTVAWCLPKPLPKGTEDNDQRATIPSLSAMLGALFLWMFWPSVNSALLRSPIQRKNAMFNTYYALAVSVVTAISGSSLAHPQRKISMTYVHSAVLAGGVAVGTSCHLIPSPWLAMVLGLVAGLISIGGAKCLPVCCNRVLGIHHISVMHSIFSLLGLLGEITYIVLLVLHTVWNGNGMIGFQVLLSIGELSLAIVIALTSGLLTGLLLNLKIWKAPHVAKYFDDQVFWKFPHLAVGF

The target of the assay is KP3-17 (anti-Rh17), as used in Example 8. The experiment in a line: peptide competition, flow cytometry on human erythrocytes. Background: Flow cytometry measures light scatter and fluorescence of single cells or particles in a stream.

B1: linear peptide corresponding to the 6th extracellular loop of human RhCE (peptide, UniProt P18577 346-360, looked up)
peptide: LLVLHTVWNGNGMIG
Take B1: the binding result was “binds”.

The values above are taken from patent publication US20210171652A1.
